Reference: patent publication US20230416798A1 (MBRACE THERAPEUTICS, published 2023)
These are yes or no findings as the source states them, for the method shown. In cells and extracts the contact can be indirect. Some results given as binding are weak or reduced against the parent protein; the word gives no strength.

Protein sequences, listed by entry. Tags and fused reporters are not part of them. Residues count along the entry.
UniProt G3I8R9, residues 19-654: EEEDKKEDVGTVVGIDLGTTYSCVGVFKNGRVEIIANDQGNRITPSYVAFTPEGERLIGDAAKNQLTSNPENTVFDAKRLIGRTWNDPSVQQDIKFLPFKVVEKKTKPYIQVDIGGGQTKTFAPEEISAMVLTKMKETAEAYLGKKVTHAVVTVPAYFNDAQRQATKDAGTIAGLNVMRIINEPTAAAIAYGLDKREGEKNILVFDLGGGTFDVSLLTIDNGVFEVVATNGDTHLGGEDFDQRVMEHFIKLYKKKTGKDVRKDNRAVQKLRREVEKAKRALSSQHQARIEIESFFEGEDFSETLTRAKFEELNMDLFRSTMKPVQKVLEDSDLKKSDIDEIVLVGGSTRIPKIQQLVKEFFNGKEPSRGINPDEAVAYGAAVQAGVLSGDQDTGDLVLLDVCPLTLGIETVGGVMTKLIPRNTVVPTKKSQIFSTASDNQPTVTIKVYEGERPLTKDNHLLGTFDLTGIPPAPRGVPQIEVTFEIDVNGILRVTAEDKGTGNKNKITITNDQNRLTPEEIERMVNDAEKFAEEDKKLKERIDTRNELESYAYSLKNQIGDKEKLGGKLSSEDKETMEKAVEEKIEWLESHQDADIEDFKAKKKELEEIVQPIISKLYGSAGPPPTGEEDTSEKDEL

B1: anti-GRP78 antibody clone B4 (antibody, IgG1, V domains shown)
VH: QVRLQESGPGLVKPSQTLSLTCTVSGGSISSGGYYWSWIRQHPGKGLEWIGYIYYSGSTYYNPSLESRVTISVDTSKNQFSLKLSSVTAADTAVYYCARYSSIDAFEIWGQGTMVTVSS
VL: SYVLTQPPSVSVAPGKTATITCGGDDIGSKSVHWYQQKPGQAPVLVVYDDGDRPSGIPERFSGSNSGNTATLAISRVEAGDEADYYCQVWDSSSDQYVFGSGTKLTVL
notes: Fully human mAb formatted as full-length IgG1; also called B4 mAb
B2: anti-GRP78 antibody clone F6 (antibody, IgG1, V domains shown)
VH: QVQLQQSGPGLVKPPQTLSLTCAISGDSVSSNSAAWNWIRQSPSRGLEWLGRTYYRSKWYNDYAVSVKSRITINPDTSKNQFSLQLNSVTPEDTAVYYCARDPYYYDSSGYYYFDAFDIWGQGTMVTVSS
VL: SYELTQPHSVSVAPGQTARITCGGDNIGSKSVHWYQQRPGQAPVLVVYDDSDRPSGIPERFSGSNSENTATLTISGVEAGDEADYYCQVWDSTSHHVVFGGGTKLTVL
notes: Fully human mAb formatted as full-length IgG1; also called F6 mAb; Anti-GRP78 (F6)

Biological target: native GRP78 of CHO cells (Chinese hamster (native protein of the CHO cells)) (UniProt G3I8R9)
Assay: co-purification with the antibody from CHO supernatant (MabSelect PrismA column), SDS-PAGE

Row | Binder | binding
1 | B1 | binds
2 | B2 | binds
